Measurements taken from publication PMC5258706.

Target: T1, SRP1 (Stress Associated RNA-binding protein 1 + SRZ5 in primer names), GST fusion (Arabidopsis thaliana) (UniProt Q8S8K1)
T1 sequence (looked up, limits assumed): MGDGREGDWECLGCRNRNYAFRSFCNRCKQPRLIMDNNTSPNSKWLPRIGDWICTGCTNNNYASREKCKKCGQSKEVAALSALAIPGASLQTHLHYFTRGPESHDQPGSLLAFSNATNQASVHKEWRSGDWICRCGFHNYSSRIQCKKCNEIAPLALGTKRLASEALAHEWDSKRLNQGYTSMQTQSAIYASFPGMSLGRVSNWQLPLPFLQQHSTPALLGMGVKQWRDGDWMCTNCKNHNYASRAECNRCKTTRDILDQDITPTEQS
Assay: EMSA
Settings: shift reduced by unlabeled ABI2 3'UTR RNA; 20 mM HEPES pH 7.5, 50 mM NaCl, 5 mM 2-mercaptoethanol, 1 mM DTT, 5 uM ZnCl2, 4 mM MgCl2; 23 C, 30 min; 8% native TRIS borate gel at 4 C; recombinant protein; protein details: GST (N-terminal, pGEX-2T); label: biotin-16-UTP (internal), unlabeled as competitor

## GGAAAAGAAGGUUUGGAAGAAAAGUGAAAAAAAAAGUUUUGAUGGUGGGUAAAAAUUCUCUUUAGUGAAAAAAGAAAGAUAAAACAACAGGUAAUAAUUACAUUGUAAUAUUAAUUUCCUGCUUAAAUUUGUUAUUUACUUUCUUAGUCUUCCCACCAUUAUCUUUUUAUAUUUAUUUUACUAACAUGAUAUAUAUAAUGUACAUGGGAAUAGUGUAACUUCCAAACAAAAAGCCCCCUUGUAUUUUUUUUUAUCUUGGGGUUAGUUGUAAUAACACUACAUUCGUCUACGUAAAUAUUUAGUGUUAUUAUUUGAUGUUU [ABI2 3'UTR RNA]
  binding result: binds

The exact form of at least one protein or probe is not confirmed. Tags and fusion partners may be left off the protein sequences shown.
